Measured values as given in patent publication US20250145609A1, “3-SUBSTITUTED PYRIDAZINE COMPOUNDS AS SMARCA2 AND/OR SMARCA4 DEGRADERS” (Aurigene Oncology Limited, priority 2022, published 2025).
Some of these results come from one statement about several compounds together.

The compounds below were run on VCaP cells (assay: Anti proliferative activity in VCaP cell line by CellTiter Glo assay). Conditions: 8 days incubation, CellTiter Glo luminescence.
Type: cell-based
Procedure: Example-P1: Determination of Anti Proliferative Activity of Compounds in Cell Lines VCaP by Cell Titer Glo©(Promega) Assay
VCaP (ATCC CRL-2876) cells were seeded in 96 well plate flat black clear bottom plates (Corning, Cat. No 3904) using complete DMEM Medium. Next day, compounds listed in the present invention were added to cells from 10 mM stocks made in DMSO (Sigma Cat no. D2650). Each concentration of compound was tested in triplicate with DMSO concentration at a final percentage not exceeding 0.3 in the cells. After the incubation of VCaP cells with compound for 8 days assay was terminated using 50 μl of CellTiter Glo© reagent (Promega, Cat. no G7572). CellTiter-Glo® Luminescent reagent determines the number of viable cells based on quantitation of ATP present which is an indicator of cell number and metabolic activity. Luminescence readings were taken in Victor-3 instrument. Percent inhibition of proliferation was calculated using formula, % inhibition=100−(luminescence value of test/luminescence value of DMSO control)*100. DMSO control (0%)=Cells in complete media with DMSO; blank=Media alone containing DMSO. EC50 was calculated using graph pad prism software.
Herein the group “A” refers to EC50 values lower than l0 nM, group “B” refers to EC50 values between l0 nM-100 nM (both inclusive) and group “C” refers to EC50 values greater than 100 nM.
For Cc1ncsc1-c1ccc([C@H](C)NC(=O)[C@@H]2C[C@@H](O)CN2C(=O)[C@@H](NC(=O)CN2CCC(c3ccc(-c4cc(-c5ccccc5O)nnc4N)cc3)CC2C)C(C)(C)C)cc1 (single isomer, unassigned) [Compound 37], the EC50 was under 10 nM. Cc1ncsc1-c1ccc([C@H](C)NC(=O)[C@@H]2C[C@@H](O)CN2C(=O)[C@@H](NC(=O)C2CCC(c3ccc(-c4cc(-c5ccccc5O)nnc4N)cc3)CC2)C(C)(C)C)cc1 (single isomer, unassigned) [Compound 41] was tested, and the EC50 was 10 to 100 nM. Work on Cc1ncsc1-c1ccc([C@H](C)NC(=O)[C@@H]2C[C@@H](O)CN2C(=O)[C@@H](NC(=O)CC2CCC(c3ccc(-c4cc(-c5ccccc5O)nnc4N)cc3)CC2)C(C)(C)C)cc1 (single isomer, unassigned) [Compound 45] yielded an EC50 of under 10 nM.
